The other results are listed elsewhere or left out. Many values rest on one well or one pass, so single values are uncertain.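 Cells were imaged in 1,536-well plates, and nuclei stained with an antibody against cleaved PARP were counted against all DNA-stained nuclei to give the apoptosis fraction. Screening doses were chosen to leave most cells alive, and resting and induced cleaved-PARP levels differ strongly between cell lines.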
Assays:
Assay in all cases: cleaved PARP positive nuclei fraction relative to DMSO control; melanoma cells; higher = more apoptosis
Settings in all cases: library dose: low library concentration; 72 h
WM115 = system: WM115
WM1716 = system: WM1716
WM1745 = system: WM1745
WM3526 = system: WM3526
WM3619 = system: WM3619
WM451Lu = system: WM451Lu

Structure (SMILES) | cleaved PARP positive nuclei fraction (WM115) [%] | cleaved PARP positive nuclei fraction (WM1716) [%] | cleaved PARP positive nuclei fraction (WM1745) [%] | cleaved PARP positive nuclei fraction (WM3526) [%] | cleaved PARP positive nuclei fraction (WM3619) [%] | cleaved PARP positive nuclei fraction (WM451Lu) [%]
CCN(CC)CCCCNc1ncc2cc(-c3cc(OC)cc(OC)c3)c(NC(=O)NC(C)(C)C)nc2n1 + c1cc(-c2cnn3cc(-c4ccc(OCCN5CCCCC5)cc4)cnc23)ccn1 [Dorsomorphin] (first compound 0.1 µM, partner dose 0.4 µM) | 50.8 | 83 | 234 | 208 | 82.8 | 64.5
NCC(=O)Nc1ccc(-n2nc(C(F)(F)F)cc2-c2ccc3c(ccc4ccccc43)c2)cc1 + CCc1ccc(CCOc2ccc(CC3SC(=O)NC3=O)cc2)nc1 [pioglitazone] (first compound 1 µM, partner dose 2 µM) | 75.7 | 125 | 114 | 162 | 81.4 | 388
COc1ccc(COc2ccc(Cc3cnc(N)nc3N)cc2OC)cc1 + CC(C)CCN1c2nc(Nc3cc(F)c(O)c(F)c3)ncc2N(C)C(=O)C1C [BID1870] (first compound 1 µM, partner dose 0.2 µM) | 108 | 56 | 87.2 | 128 | 62.2 | 53.1
COC(=O)c1sccc1S(=O)(=O)Nc1ccc(Nc2ccccc2)cc1OC + COc1ccc(COc2ccc(Cc3cnc(N)nc3N)cc2OC)cc1 [GW2580] (first compound 1 µM, partner dose 1 µM) | 207 | 173 | 90.7 | 63.9 | 84.3 | 162
Cc1cc([N+](=O)[O-])ccc1NS(=O)(=O)c1cc(Cl)ccc1Cl + CC(C)CCN1c2nc(Nc3cc(F)c(O)c(F)c3)ncc2N(C)C(=O)C1C [BID1870] (first compound 1 µM, partner dose 0.2 µM) | 232 | 92.7 | 80.4 | 60.1 | 88.2 | 275
O=S(=O)(c1ccccc1)N(CC(F)(F)F)c1ccc(C(O)(C(F)(F)F)C(F)(F)F)cc1 + Cn1cc(/C=C2\C(=O)Nc3cccnc32)c2ccccc21 [GW441756] (first compound 1.4 µM, partner dose 0.4 µM) | 64.2 | 70.7 | 122 | 103 | 63.4 | 234
CN(C)S(=O)(=O)c1ccc2c(c1)/C(=C/c1cc3c([nH]1)CCCC3)C(=O)N2 + O=c1cc(-c2cccc3c2Sc2ccccc2S3)oc(N2CCOCC2)c1 [KU55933] (first compound 0.4 µM, partner dose 1 µM) | 242 | 56.3 | 104 | 151 | 70.5 | 40.1
CCCCCCCCCCCC1=C(O)C(=O)C=C(O)C1=O [Embelin] + CC(C)CCN1c2nc(Nc3cc(F)c(O)c(F)c3)ncc2N(C)C(=O)C1C [BID1870] (first compound 1.2 µM, partner dose 0.2 µM) | 67.7 | 83.5 | 109 | 82.2 | 147 | 49.5
N#Cc1c(O)c2c(-c3ccc(-c4ccccc4O)cc3)csc2[nH]c1=O + Oc1nc(-c2ccc(C(F)(F)F)cc2)nc2c1CSCC2 [XAV939] (first compound 2 µM, partner dose 2 µM) | 90.2 | 62.6 | 113 | 66.5 | 102 | 55.1
Cc1cc([N+](=O)[O-])ccc1NS(=O)(=O)c1cc(Cl)ccc1Cl + c1cc(-c2cnn3cc(-c4ccc(OCCN5CCCCC5)cc4)cnc23)ccn1 [Dorsomorphin] (first compound 1 µM, partner dose 0.4 µM) | 178 | 58.1 | 125 | 80.9 | 78.7 | 137
COc1cc2c(Oc3ccc4[nH]c(C)cc4c3F)ncnc2cc1OCCCN1CCCC1 [cediranib] + O=C(Nc1ccccc1)c1cc([N+](=O)[O-])ccc1Cl [GW9662] (first compound 0.4 µM, partner dose 2 µM) | 98 | 67.1 | 109 | 142 | 60.2 | 56.2
O=C(O)C(=O)Nc1sc2c(c1C(=O)O)CCNC2 + Cc1cc([N+](=O)[O-])ccc1NS(=O)(=O)c1cc(Cl)ccc1Cl [FH535] (first compound 1.66667 µM, partner dose 1 µM) | 105 | 82 | 125 | 74.2 | 178 | 74.2
CN(C)S(=O)(=O)c1ccc2c(c1)/C(=C/c1cc3c([nH]1)CCCC3)C(=O)N2 + CCN(CC)CCCCNc1ncc2cc(-c3cc(OC)cc(OC)c3)c(NC(=O)NC(C)(C)C)nc2n1 [PD173074] (first compound 0.4 µM, partner dose 0.1 µM) | 246 | 82 | 109 | 243 | 68.5 | 87.1
NCC(=O)Nc1ccc(-n2nc(C(F)(F)F)cc2-c2ccc3c(ccc4ccccc43)c2)cc1 + O=C1NC(=O)/C(=C/c2ccc(-c3ccc(F)cc3O)o2)S1 [AS252424] (first compound 1 µM, partner dose 1 µM) | 67.1 | 130 | 91.5 | 68.9 | 76.5 | 191
O=C(O)C(=O)Nc1sc2c(c1C(=O)O)CCNC2 + Oc1nc(-c2ccc(C(F)(F)F)cc2)nc2c1CSCC2 [XAV939] (first compound 1.66667 µM, partner dose 2 µM) | 120 | 201 | 144 | 323 | 169 | 67.4
COc1ccc(COc2ccc(Cc3cnc(N)nc3N)cc2OC)cc1 + c1cc(-c2cnn3cc(-c4ccc(OCCN5CCCCC5)cc4)cnc23)ccn1 [Dorsomorphin] (first compound 1 µM, partner dose 0.4 µM) | 125 | 50.6 | 132 | 36.6 | 91.7 | 58.5
CN(C)S(=O)(=O)c1ccc2c(c1)/C(=C/c1cc3c([nH]1)CCCC3)C(=O)N2 + Oc1nc(-c2ccc(C(F)(F)F)cc2)nc2c1CSCC2 [XAV939] (first compound 0.4 µM, partner dose 2 µM) | 174 | 81.4 | 106 | 92.6 | 89.2 | 178
O=C(Nc1ccccc1)c1cc([N+](=O)[O-])ccc1Cl + c1cc(-c2cnn3cc(-c4ccc(OCCN5CCCCC5)cc4)cnc23)ccn1 [Dorsomorphin] (first compound 2 µM, partner dose 0.4 µM) | 104 | 137 | 128 | 53.4 | 109 | 56.4
COc1cc2c(Oc3ccc4[nH]c(C)cc4c3F)ncnc2cc1OCCCN1CCCC1 [cediranib] + CC(C)CCN1c2nc(Nc3cc(F)c(O)c(F)c3)ncc2N(C)C(=O)C1C [BID1870] (first compound 0.4 µM, partner dose 0.2 µM) | 149 | 206 | 118 | 94.8 | 68.9 | 103
CN(NC(=O)CC(=O)NN(C)C(=S)c1ccccc1)C(=S)c1ccccc1 + COc1ccc(-c2ccc3c(N4CCOCC4)nc(N4C[C@@H](C)O[C@@H](C)C4)nc3n2)cc1CO [KU0063794] (first compound 0.006 µM, partner dose 0.02 µM) | 248 | 134 | 177 | 135 | 133 | 83.5
O=C(O)C(=O)Nc1sc2c(c1C(=O)O)CCNC2 + O=C1NC(=O)/C(=C/c2ccc(-c3ccc(F)cc3O)o2)S1 [AS252424] (first compound 1.66667 µM, partner dose 1 µM) | 45.9 | 180 | 119 | 30.9 | 92.3 | 161
COC(=O)c1sccc1S(=O)(=O)Nc1ccc(Nc2ccccc2)cc1OC + Cn1cc(/C=C2\C(=O)Nc3cccnc32)c2ccccc21 [GW441756] (first compound 1 µM, partner dose 0.4 µM) | 98.2 | 97.5 | 120 | 93.2 | 83.5 | 110
CCc1ccc(CCOc2ccc(CC3SC(=O)NC3=O)cc2)nc1 (configuration not stated) [pioglitazone] + CC(C)CCN1c2nc(Nc3cc(F)c(O)c(F)c3)ncc2N(C)C(=O)C1C [BID1870] (first compound 2 µM, partner dose 0.2 µM) | 199 | 153 | 111 | 147 | 84.9 | 221
O=C(O)c1ccc(-c2c[nH]c3ncc(-c4ccccc4)cc23)cc1C1CCCC1 + COc1cc2c(Oc3ccc4[nH]c(C)cc4c3F)ncnc2cc1OCCCN1CCCC1 [cediranib] (first compound 0.16 µM, partner dose 0.4 µM) | 28.7 | 146 | 85 | 166 | 99 | 62
c1cc(-c2cnn3cc(-c4ccc(OCCN5CCCCC5)cc4)cnc23)ccn1 [Dorsomorphin] + CC(C)CCN1c2nc(Nc3cc(F)c(O)c(F)c3)ncc2N(C)C(=O)C1C [BID1870] (first compound 0.4 µM, partner dose 0.2 µM) | 101 | 132 | 102 | 76.5 | 596 | 124
COc1ccc2c(c1)CCC1C2CCC2(C)C(NCCCCCCN3C(=O)C=CC3=O)CCC12 (configuration not stated) + CC(C)CCN1c2nc(Nc3cc(F)c(O)c(F)c3)ncc2N(C)C(=O)C1C [BID1870] (first compound 0.4 µM, partner dose 0.2 µM) | 134 | 232 | 97.7 | 73.2 | 165 | 159
NCC(=O)Nc1ccc(-n2nc(C(F)(F)F)cc2-c2ccc3c(ccc4ccccc43)c2)cc1 + O=c1cc(-c2cccc3c2Sc2ccccc2S3)oc(N2CCOCC2)c1 [KU55933] (first compound 1 µM, partner dose 1 µM) | 119 | 105 | 88.3 | 321 | 77.9 | 100

Retrieved one by one from the list above (two):
Structure (SMILES) | cleaved PARP positive nuclei fraction (WM115) [%] | cleaved PARP positive nuclei fraction (WM1716) [%] | cleaved PARP positive nuclei fraction (WM1745) [%] | cleaved PARP positive nuclei fraction (WM3526) [%] | cleaved PARP positive nuclei fraction (WM3619) [%] | cleaved PARP positive nuclei fraction (WM451Lu) [%]
O=S(=O)(c1ccccc1)N(CC(F)(F)F)c1ccc(C(O)(C(F)(F)F)C(F)(F)F)cc1 + Cn1cc(/C=C2\C(=O)Nc3cccnc32)c2ccccc21 [GW441756] (first compound 1.4 µM, partner dose 0.4 µM) | 64.2 | 70.7 | 122 | 103 | 63.4 | 234
NCC(=O)Nc1ccc(-n2nc(C(F)(F)F)cc2-c2ccc3c(ccc4ccccc43)c2)cc1 + CCc1ccc(CCOc2ccc(CC3SC(=O)NC3=O)cc2)nc1 [pioglitazone] (first compound 1 µM, partner dose 2 µM) | 75.7 | 125 | 114 | 162 | 81.4 | 388
